According to publication PMC4650443:
Results are given in words; binding and its absence hold for the method and conditions named. For some of these results: Binding seen in cells or lysates may run through a third protein. Some binding calls cover weakened binding; strength is not graded here.

Assays:
GST-tagged cyclin E = GST-tagged cyclin E (UniProt P24864); assay: pull-down; purified GST or GST-tagged cyclin E immobilised on glutathione-agarose (Pierce spin column); MCF-7 cell extract with DNase, 4 °C, at least 6 h; five washes; eluate probed with anti-DEC1 and anti-GST; only the target purified
[1] = molecular target: endogenous cyclin E (human (endogenous in MCF-7)) (UniProt P24864); assay: co-IP; MCF-7 cell extract immunoprecipitated with anti-cyclin E antibody (anti-IgG as control) and protein A-Sepharose, 4 °C, 24 h; endogenous proteins detected by blot; cells with or without serum; Figure 3i,j: cells transfected with GFP-DEC1 or empty vector, MG132 8 h; Figure 6c: cells transfected with Flag-DEC1 or empty vector, at times after release from nocodazole
Flag-DEC1 = Flag-DEC1 (UniProt O14503); assay: co-IP; MCF-7 transfected with tagged proteins; cell extract (50 mM Tris-HCl pH 8.0, 150 mM NaCl, 0.1% SDS, 1% NP-40, 0.5% sodium deoxycholate) with anti-Flag or anti-HA antibody and protein A-Sepharose, 4 °C, 24 h; washes with 500 mM NaCl; cells with serum or serum-starved 24 h; Figure 4j: at times after release from nocodazole
pBIND-cyclin E = pBIND-cyclin E (UniProt P24864); assay: two-hybrid; CheckMate mammalian two-hybrid system (Promega) in MCF-7 cells: pBIND and pACT fusions with pG5-luc, luciferase read-out; with or without serum starvation; Figures 5c and 6d also with Flag-DEC1 co-expressed, Figure 6d in synchronised cells
Myc-tagged cyclin E = Myc-tagged cyclin E (UniProt P24864); assay: co-IP; MCF-7 transfected with two tagged partners with or without DEC1 (GFP-DEC1 or Flag-DEC1) co-expressed; cell extract immunoprecipitated with anti-Myc antibody, probed with anti-Flag, anti-GFP or anti-HA; Figure 3g,h: MG132 8 h, with serum or serum-free

Substance: endogenous DEC1 (from UniProt O14503 1-412)
- binding (GST-tagged cyclin E): binds
- binding [1]: binds

Substance: Myc-tagged cyclin E (from UniProt P24864-3 1-395)
- binding (Flag-DEC1): binds

Substance: endogenous cyclin E (from UniProt P24864 1-410)
- binding (Flag-DEC1): binds

Substance: pACT-DEC1 (from UniProt O14503 1-412)
- binding (pBIND-cyclin E): binds

Substance: GFP-DEC1 (from UniProt O14503 1-412)
- binding (Myc-tagged cyclin E): binds
- binding [1]: binds
